{"source": "paper PMC3627897", "molecular_target": "T1, Type II cGMP-dependent protein kinase (PKG II) (UniProt Q13237)", "T1 sequence": "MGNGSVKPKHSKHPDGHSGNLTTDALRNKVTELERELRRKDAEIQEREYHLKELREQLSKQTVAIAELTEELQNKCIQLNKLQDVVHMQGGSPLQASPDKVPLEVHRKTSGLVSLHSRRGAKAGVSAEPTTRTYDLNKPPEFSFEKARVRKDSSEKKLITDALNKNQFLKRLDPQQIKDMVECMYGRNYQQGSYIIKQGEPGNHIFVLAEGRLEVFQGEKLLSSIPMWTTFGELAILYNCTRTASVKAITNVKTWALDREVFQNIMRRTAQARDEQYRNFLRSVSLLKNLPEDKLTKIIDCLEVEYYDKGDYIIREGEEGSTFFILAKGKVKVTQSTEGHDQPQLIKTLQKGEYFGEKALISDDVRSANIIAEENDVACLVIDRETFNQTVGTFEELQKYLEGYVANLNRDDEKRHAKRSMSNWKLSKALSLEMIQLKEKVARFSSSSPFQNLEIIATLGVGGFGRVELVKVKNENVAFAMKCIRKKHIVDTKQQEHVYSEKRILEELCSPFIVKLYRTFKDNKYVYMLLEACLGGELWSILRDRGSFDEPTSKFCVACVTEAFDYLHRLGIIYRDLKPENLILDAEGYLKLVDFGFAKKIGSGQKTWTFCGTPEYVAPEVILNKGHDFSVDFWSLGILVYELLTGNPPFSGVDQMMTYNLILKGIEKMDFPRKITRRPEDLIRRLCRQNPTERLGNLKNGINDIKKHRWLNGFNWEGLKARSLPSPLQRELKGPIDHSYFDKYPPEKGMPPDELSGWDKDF", "test": "co-IP; AGS cells infected with Ad-PKG II, serum-starved o/n, 250 uM 8-pCPT-cGMP for 1 h, EGF (100 ng/ml) for 5 min; lysate immunoprecipitated with anti-PKG II antibody or isotype-matched IgG and probed with anti-EGFR antibody; the contrary experiment (IP anti-EGFR, probed with anti-PKG II) also performed", "note": "Results are given in words; binding and its absence hold for the method and conditions named. In cells and extracts the contact can be indirect. Some entries that bind do so weakly or less than the wild type."}
{"substance": "epidermal growth factor receptor (EGFR) (from UniProt P00533 25-1210)", "values": [{"measurement": "binding", "result": "binds"}]}
